The other results are listed elsewhere or left out. Where no call is shown, the source marks the result inconclusive. For part of these data: Potency and affinity values are given separately.
test: PubChem AID 1600; conditions: yeast Parkinson's disease model, growth rescue; stronger effect = higher value

SMILES | score
COc1ccc(/C=C/c2cc(O)cc(O[C@@H]3O[C@H](CO)[C@@H](O)[C@H](O)[C@H]3O)c2)cc1O | -2.97
CC(=O)[C@H]1CCC2C3CCC4=CC(=O)CC[C@]4(C)C3CC[C@@]21C (stereo partly drawn) | -0.269
CN(C)CCCN1c2ccccc2Sc2ccc(Cl)cc21 | -0.056
CC1=C(/C=C/C(C)=C/C=C/C(C)=C/C=C/C=C(C)/C=C/C=C(C)/C=C/C2=C(C)CCCC2(C)C)C(C)(C)CCC1 | 0.233
COC(=O)[C@H]1[C@H]2C[C@H]3c4[nH]c5ccccc5c4CCN3C[C@H]2CC[C@@H]1O | -0.419
CN(C)CC/C=C1/c2ccccc2COc2ccccc21 | 0.403
C[C@H](CCC(=O)O)[C@H]1CCC2C3C(CC[C@@]21C)[C@@]1(C)CC[C@@H](O)C[C@H]1C[C@@H]3O (stereo partly drawn) | -0.127
COC(=O)C(N)CS (stereo not drawn) | -0.268
Nc1ccn(C2O[C@H](CO)[C@@H](O)[C@H]2O)c(=O)n1 (stereo partly drawn) | -0.873
NC(=O)c1cccc(N)c1 | -0.642
NC(=O)c1ccc([N+](=O)[O-])cc1Cl | 0.324
NC(=O)NC(=O)Cc1ccccc1 | 1.79
CC1(C)S[C@@H]2[C@H](NC(=O)COc3ccccc3)C(=O)N2[C@H]1C(=O)O | -3.17
O=C1NC(=O)C(c2ccccc2)(c2ccccc2)N1 | -1.61
Cc1noc(NS(=O)(=O)c2ccc(N)cc2)c1C | 0.353
c1ccc(CC2=NCCN2)cc1 | -0.169
C[C@@H]1CC2C3CCC4=CC(=O)C=C[C@]4(C)[C@@]3(F)[C@@H](O)C[C@]2(C)[C@@]1(O)C(=O)CO (stereo partly drawn) | 0.161
NCC1CCC(N)C(OC2C(N)CC(N)C(OC3OC(CO)C(O)C(N)C3O)C2O)O1 (stereo not drawn) | 0.791
O=C1OC(c2ccc(O)cc2)(c2ccc(O)cc2)c2ccccc21 | 2.44
CC12CCC3c4ccc(OCc5ccccc5)cc4CCC3C1C[C@@H](O)[C@@H]2O (stereo partly drawn) | 0.137

Reprinted at random: two compounds from above, in no set order.
SMILES | score
CC12CCC3c4ccc(OCc5ccccc5)cc4CCC3C1C[C@@H](O)[C@@H]2O (stereo partly drawn) | 0.137
NC(=O)c1cccc(N)c1 | -0.642

(list continues)

SMILES | score
CCCCN1CCCCC1C(=O)Nc1c(C)cccc1C (stereo not drawn) | -1.59
N.N.O=C(O)C1(C(=O)O)CCC1.[Pt] | -0.943
COc1ccc(C2C(=O)c3ccccc3C2=O)cc1 | -0.419
COC1=C2C[C@@H](C)C[C@H](OC)[C@H](O)[C@@H](C)/C=C(\C)[C@@H](OC(N)=O)[C@H](OC)/C=C\C=C(/C)C(=O)NC(=CC1=O)C2=O | 2.5
O=c1ccn([C@@H]2O[C@H](COP(=O)(O)OP(=O)(O)OP(=O)(O)O)[C@@H](O)[C@H]2O)c(=O)[nH]1 | 0.302
COc1c(OC)c2occc2c2oc(=O)ccc12 | 0.305
CN=C(NC#N)NCCSCc1nc[nH]c1C | -1.22
Cc1ccccc1OCC(O)CO (stereo not drawn) | -0.002
CC(C)(C)NC[C@@H](O)COc1nsnc1N1CCOCC1 | -0.542
COc1cc(NC(C)CCCN)c2ncccc2c1 (stereo not drawn) | -2.14
CC[C@H](C)C(=O)O[C@H]1CCC=C2C=C[C@H](C)C(CCC3C[C@@H](O)CC(=O)O3)[C@H]21 (stereo partly drawn) | -1.88
CCC(=O)OCC(=O)C1(OC(=O)CC)C(C)CC2C3CCC4=CC(=O)C=CC4(C)C3(Cl)C(O)CC21C (stereo not drawn) | -1.53
N#Cc1ccc2c(c1)N(CCCN1CCC(O)CC1)c1ccccc1S2 | -1.2
CC(=O)O[C@H]1C[C@@]2(C)[C@@H](C[C@@H](O)C3[C@]2(C)CC[C@H]2[C@H](C)[C@H](O)CC[C@]32C)/C1=C(/CCC=C(C)C)C(=O)O (stereo partly drawn) | -1.44
CC(C)C[C@@H](NC(=O)OCC1c2ccccc2-c2ccccc21)C(=O)O | -2.07
C=C1CC[C@H](O)C/C1=C/C=C1\CCC[C@]2(C)C([C@H](C)/C=C/[C@H](C)C(C)C)CC[C@@H]12 (stereo partly drawn) | -2.54
CC[C@H]1CN2CCc3cc(OC)c(OC)cc3C2C[C@@H]1CC1NCCc2cc(OC)c(OC)cc21 (stereo partly drawn) | -1.43
CC(C)CC(NC(=O)CCN)C(=O)O (stereo not drawn) | -1.58
CCCCCCc1ccc(O)cc1O | -2.3

test: suppressors of mutant SOD1 cell death (AID 1601); conditions: mutant SOD1 cell death rescue, 1 uM; stronger effect = higher value

SMILES | protection [%]
COc1ccc(/C=C/c2cc(O)cc(O[C@@H]3O[C@H](CO)[C@@H](O)[C@H](O)[C@H]3O)c2)cc1O | -24.7
CC(=O)[C@H]1CCC2C3CCC4=CC(=O)CC[C@]4(C)C3CC[C@@]21C (stereo partly drawn) | 0.94
CN(C)CCCN1c2ccccc2Sc2ccc(Cl)cc21 | -15.5
CC1=C(/C=C/C(C)=C/C=C/C(C)=C/C=C/C=C(C)/C=C/C=C(C)/C=C/C2=C(C)CCCC2(C)C)C(C)(C)CCC1 | -22
COC(=O)[C@H]1[C@H]2C[C@H]3c4[nH]c5ccccc5c4CCN3C[C@H]2CC[C@@H]1O | -7.92
CN(C)CC/C=C1/c2ccccc2COc2ccccc21 | 10
C[C@H](CCC(=O)O)[C@H]1CCC2C3C(CC[C@@]21C)[C@@]1(C)CC[C@@H](O)C[C@H]1C[C@@H]3O (stereo partly drawn) | -7.28
COC(=O)C(N)CS (stereo not drawn) | -8.37
Nc1ccn(C2O[C@H](CO)[C@@H](O)[C@H]2O)c(=O)n1 (stereo partly drawn) | 1.41
NC(=O)c1cccc(N)c1 | 13.9
NC(=O)c1ccc([N+](=O)[O-])cc1Cl | -22.1
NC(=O)NC(=O)Cc1ccccc1 | -0.59
CC1(C)S[C@@H]2[C@H](NC(=O)COc3ccccc3)C(=O)N2[C@H]1C(=O)O | -27.7
O=C1NC(=O)C(c2ccccc2)(c2ccccc2)N1 | -10.8
Cc1noc(NS(=O)(=O)c2ccc(N)cc2)c1C | 16.7
c1ccc(CC2=NCCN2)cc1 | -6.87
C[C@@H]1CC2C3CCC4=CC(=O)C=C[C@]4(C)[C@@]3(F)[C@@H](O)C[C@]2(C)[C@@]1(O)C(=O)CO (stereo partly drawn) | 9.37
NCC1CCC(N)C(OC2C(N)CC(N)C(OC3OC(CO)C(O)C(N)C3O)C2O)O1 (stereo not drawn) | -16.6
O=C1OC(c2ccc(O)cc2)(c2ccc(O)cc2)c2ccccc21 | -18.3
CC12CCC3c4ccc(OCc5ccccc5)cc4CCC3C1C[C@@H](O)[C@@H]2O (stereo partly drawn) | -25.6

Rewritten in markdown: entries from further up

| SMILES | protection [%] |
| --- | --- |
| CC(=O)[C@H]1CCC2C3CCC4=CC(=O)CC[C@]4(C)C3CC[C@@]21C (stereo partly drawn) | 0.94 |
| CN(C)CCCN1c2ccccc2Sc2ccc(Cl)cc21 | -15.5 |
| CC1=C(/C=C/C(C)=C/C=C/C(C)=C/C=C/C=C(C)/C=C/C=C(C)/C=C/C2=C(C)CCCC2(C)C)C(C)(C)CCC1 | -22 |

Additional compounds

SMILES | protection [%]
CCCCN1CCCCC1C(=O)Nc1c(C)cccc1C (stereo not drawn) | 16.2
N.N.O=C(O)C1(C(=O)O)CCC1.[Pt] | -22.6
COc1ccc(C2C(=O)c3ccccc3C2=O)cc1 | -15.4
COC1=C2C[C@@H](C)C[C@H](OC)[C@H](O)[C@@H](C)/C=C(\C)[C@@H](OC(N)=O)[C@H](OC)/C=C\C=C(/C)C(=O)NC(=CC1=O)C2=O | -3.41
O=c1ccn([C@@H]2O[C@H](COP(=O)(O)OP(=O)(O)OP(=O)(O)O)[C@@H](O)[C@H]2O)c(=O)[nH]1 | 16.1
COc1c(OC)c2occc2c2oc(=O)ccc12 | -17.2
CN=C(NC#N)NCCSCc1nc[nH]c1C | -0.84
Cc1ccccc1OCC(O)CO (stereo not drawn) | -17.9
CC(C)(C)NC[C@@H](O)COc1nsnc1N1CCOCC1 | -19.7
COc1cc(NC(C)CCCN)c2ncccc2c1 (stereo not drawn) | -19.6
CC[C@H](C)C(=O)O[C@H]1CCC=C2C=C[C@H](C)C(CCC3C[C@@H](O)CC(=O)O3)[C@H]21 (stereo partly drawn) | 21.9
CCC(=O)OCC(=O)C1(OC(=O)CC)C(C)CC2C3CCC4=CC(=O)C=CC4(C)C3(Cl)C(O)CC21C (stereo not drawn) | 3.83
N#Cc1ccc2c(c1)N(CCCN1CCC(O)CC1)c1ccccc1S2 | -46.6
CC(=O)O[C@H]1C[C@@]2(C)[C@@H](C[C@@H](O)C3[C@]2(C)CC[C@H]2[C@H](C)[C@H](O)CC[C@]32C)/C1=C(/CCC=C(C)C)C(=O)O (stereo partly drawn) | -4.03
CC(C)C[C@@H](NC(=O)OCC1c2ccccc2-c2ccccc21)C(=O)O | 7.29
C=C1CC[C@H](O)C/C1=C/C=C1\CCC[C@]2(C)C([C@H](C)/C=C/[C@H](C)C(C)C)CC[C@@H]12 (stereo partly drawn) | 1.96
CC[C@H]1CN2CCc3cc(OC)c(OC)cc3C2C[C@@H]1CC1NCCc2cc(OC)c(OC)cc21 (stereo partly drawn) | -55.4
CC(C)CC(NC(=O)CCN)C(=O)O (stereo not drawn) | 0.87
CCCCCCc1ccc(O)cc1O | -37
